In publication PMC10146957, “Systematic Studies on Anti-Cancer Evaluation of Stilbene and Dibenzo[b,f]oxepine Derivatives” (Molecules, 2023):

tested on: HCT116 cells; assay: MTT cytotoxicity assay, HCT116 cells; format: cell-based, human; settings: SI1 = IC50(HEK-293)/IC50(HCT116)
Experimental: (§1) Cells were cultured in a humidified incubator at 37 °C under 5% CO2. Human colorectal carcinoma (HCT116) cells were grown in McCoy’s 5A Medium (ATCC, Catalog No. 30-2007), human breast adenocarcinoma (MCF-7) and human dermal fibroblasts (HDF-A) cells were maintained in Dulbecco’s Modified Eagle’s Medium (DMEM, Sigma D5546) supplemented with 2 mM L-glutamine. Human embryonic kidney (HEK293) cell line was cultured in Dulbecco’s Modified Eagle’s Medium (DMEM, Gibco 31966-021). All culture media were supplemented with 1% Penicillin-Streptomycin (Sigma-Aldrich, P4333) and 10% fetal bovine serum (Gibco, 10270-106). Cells were sub-cultured at approximately 80–90% confluency to maintain the culture in the logarithmic growth phase.
(§2) Cells were seeded at a 96-well plate at the density of 7 × 10^3 cells per well and allowed to grow for 24 h. Afterward, the medium was aspirated and fresh medium was added (200 μL) with serial dilutions (100 − 10 μM) of tested compounds or DMSO at corresponding concentrations as a control. Following 48 h of incubation, the medium was replaced with phenol red-free medium (100 μL) containing MTT (3-(4,5-dimethylthiazol-2-yl)-2,5-diphenyl-2H-tetrazolium bromide, 0.5 mg/mL) and replaced in the incubator for 4 h. The formed formazan was dissolved in DMSO (100 μL) followed by incubation of the mixture at 37 °C for 10 min. The absorbance was measured at 540 nm. After blank subtraction, the half maximal effective concentration (EC50) was calculated by GraphPad Prism software (GraphPad Software Inc, San Diego, CA, USA).

Row | Structure (SMILES) | SI1
1 | CC(=O)Oc1ccc2c(c1)Oc1cc([N+](=O)[O-])ccc1C=C2 [Compound 2j, 7-nitrodibenzo[b,f]oxepin-3-yl acetate] | 1.6
2 | COc1ccc(O)c(/C=C/c2ccc([N+](=O)[O-])cc2[N+](=O)[O-])c1 [Compound 1d, (E)-2-hydroxy-5-methoxy-2′,4′-dinitrostilbene] | 1.8
3 | O=[N+]([O-])c1ccc(/C=C/c2ccc(O)cc2O)c([N+](=O)[O-])c1 [Compound 1i, (E)-2,4-dihydroxy-2′,4′-dinitrostilbene] | 1.0
4 | COc1ccc(/C=C/c2ccc([N+](=O)[O-])cc2[N+](=O)[O-])c(O)c1 [Compound 1c, (E)-2-hydroxy-4-methoxy-2′,4′-dinitrostilbene] | 0.9
5 | Nc1ccc2c(c1)Oc1ccc3ccccc3c1C=C2 [Compound 3h, benzo[b]naphtho[1,2-f]oxepin-9-amine] | 0.7
6 | O=[N+]([O-])c1ccc2c(c1)Oc1cc(O)ccc1C=C2 [Compound 2i, 7-nitrodibenzo[b,f]oxepin-3-ol] | 1.6

same assay, conditions: SI2 = IC50(HDF-A)/IC50(HCT116)

Row | Structure (SMILES) | SI2
7 | COc1ccc(O)c(/C=C/c2ccc([N+](=O)[O-])cc2[N+](=O)[O-])c1 [Compound 1d, (E)-2-hydroxy-5-methoxy-2′,4′-dinitrostilbene] | 2.2
8 | O=[N+]([O-])c1ccc(/C=C/c2ccc(O)cc2O)c([N+](=O)[O-])c1 [Compound 1i, (E)-2,4-dihydroxy-2′,4′-dinitrostilbene] | 0.8
9 | COc1ccc(/C=C/c2ccc([N+](=O)[O-])cc2[N+](=O)[O-])c(O)c1 [Compound 1c, (E)-2-hydroxy-4-methoxy-2′,4′-dinitrostilbene] | 1.1
10 | O=[N+]([O-])c1ccc2c(c1)Oc1cc(O)ccc1C=C2 [Compound 2i, 7-nitrodibenzo[b,f]oxepin-3-ol] | 1.7

tested on: MCF-7 cells; assay: MTT cytotoxicity assay, MCF-7 cells; format: cell-based, human; settings: SI3 = IC50(HEK-293)/IC50(MCF-7)
Experimental: as §1, §2

Row | Structure (SMILES) | SI3
11 | CC(=O)Oc1ccc2c(c1)Oc1cc([N+](=O)[O-])ccc1C=C2 [Compound 2j, 7-nitrodibenzo[b,f]oxepin-3-yl acetate] | 2.4
12 | COc1ccc(O)c(/C=C/c2ccc([N+](=O)[O-])cc2[N+](=O)[O-])c1 [Compound 1d, (E)-2-hydroxy-5-methoxy-2′,4′-dinitrostilbene] | 0.7
13 | O=[N+]([O-])c1ccc(/C=C/c2ccc(O)cc2O)c([N+](=O)[O-])c1 [Compound 1i, (E)-2,4-dihydroxy-2′,4′-dinitrostilbene] | 0.8
14 | O=[N+]([O-])c1ccc(/C=C/c2ccccc2O)c([N+](=O)[O-])c1 [Compound 1a, (E)-2-hydroxy-2′,4′-dinitrostilbene] | 0.5
15 | COc1ccc(/C=C/c2ccc([N+](=O)[O-])cc2[N+](=O)[O-])c(O)c1 [Compound 1c, (E)-2-hydroxy-4-methoxy-2′,4′-dinitrostilbene] | 0.7
16 | O=[N+]([O-])c1ccc2c(c1)Oc1cc(O)ccc1C=C2 [Compound 2i, 7-nitrodibenzo[b,f]oxepin-3-ol] | 1.2

same assay, conditions: SI4 = IC50(HDF-A)/IC50(MCF-7)

Row | Structure (SMILES) | SI4
17 | COc1ccc(O)c(/C=C/c2ccc([N+](=O)[O-])cc2[N+](=O)[O-])c1 [Compound 1d, (E)-2-hydroxy-5-methoxy-2′,4′-dinitrostilbene] | 0.9
18 | O=[N+]([O-])c1ccc(/C=C/c2ccc(O)cc2O)c([N+](=O)[O-])c1 [Compound 1i, (E)-2,4-dihydroxy-2′,4′-dinitrostilbene] | 0.6
19 | O=[N+]([O-])c1ccc(/C=C/c2ccccc2O)c([N+](=O)[O-])c1 [Compound 1a, (E)-2-hydroxy-2′,4′-dinitrostilbene] | 1.1
20 | COc1ccc(/C=C/c2ccc([N+](=O)[O-])cc2[N+](=O)[O-])c(O)c1 [Compound 1c, (E)-2-hydroxy-4-methoxy-2′,4′-dinitrostilbene] | 1.0
21 | O=[N+]([O-])c1ccc2c(c1)Oc1cc(O)ccc1C=C2 [Compound 2i, 7-nitrodibenzo[b,f]oxepin-3-ol] | 1.4
